Assay results as given in PubChem BioAssay AID493014 (National Center for Advancing Translational Sciences (NCATS), 2011).
The campaign covered roughly 340,000 compounds. About 170 (0.05%) were called active. Inconclusive means that the source gave no clear call. Such entries were picked first, then a sample of the others. Calls come from the whole dose curve; as a rule, active = well fitted inhibition curve with a large enough effect in the signal ratio, with a control signal flat (not every such curve was filed as active); inconclusive = small, poorly fitted or top-dose-only effect, or effect the other way, or a change in a side signal; inactive = flat fitted curve, though single readings scatter; the % refers to the signal ratio. Potencies of inconclusive entries are doubtful fits and often do not repeat.

Assay: qHTS Assay to Find Inhibitors of Chronic Active B-Cell Receptor Signaling;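 for activity change, negative = inhibition: plate controls were basal doxycycline-induced cells for no effect and cells given 10 µM MG132 for full effect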
Conditions: ABC-DLBCL IkBa-CBG/CBR reporter, luminescence ratio (green luciferase fused to IkBa over red control in TMD8 lymphoma cells), 4 h; activity change, negative = inhibition: at 46.1 µM (top of the series) unless noted
Method in brief: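 Concentration-response series (up to 46 uM) were applied to TMD8 dual-reporter cells for 4 h at 37C with doxycycline. Green/red ratio, after filter-overlap correction, defined %Activity; red signal alone was normalised to basal cells and zero luminescence.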
Potency is the fitted concentration of half-maximal effect.

Compound | activity change, negative = inhibition | Potency
COc1cccc(NC(=O)CSc2nc3ccccc3nc2N2CCOCC2)c1 | inconclusive: -7.2% | 
O=C(CSc1nc2ccccc2c(=O)n1Cc1ccccc1)Nc1ccc(Br)cc1C(=O)O | inconclusive: 12.7% | 
Cc1ccc(NC(NC(=O)c2ccccn2)C(Cl)(Cl)Cl)cc1 (configuration not stated) | inconclusive: -25.6% | 
CCc1nnc(NS(=O)(=O)c2ccc(N/C=C\C(=O)c3cccc4ccccc34)cc2)s1 | inconclusive: 6.52% | 
Cc1ccccc1NC1=NCC(c2ccc([N+](=O)[O-])cc2)S1 (configuration not stated) |  | inconclusive: 11.2 µM [falling, partial curve]
COc1cc(C2CC(=O)c3c([nH]c(C(=O)OC4CCCCC4)c3C)C2)cc(OC)c1OC (configuration not stated) | inactive: 1.98% | 
CCN(CC)S(=O)(=O)c1ccc(Cl)c(C(=O)OC)c1 | inconclusive: 2.54% | 
Cc1cc(C)n(C(N)=NC(=O)c2ccc([N+](=O)[O-])cc2)n1 | inconclusive: 12.7% | 
O=[N+]([O-])c1ccccc1S(=O)(=O)Nc1cccc(-c2ccc3nncn3n2)c1 |  | inconclusive: 25.9 µM [falling, single point]
CCOC(=O)c1sc(NC(=O)c2sccc2C)cc1C |  | inconclusive: 2.91 µM [falling, partial curve, poor fit]
Cc1ccc(S(=O)(=O)N(C)C)cc1NC(=O)COC(=O)C1CC(=O)N(c2ccc3c(c2)OCCO3)C1 (configuration not stated) | inactive: -9.6% | 
CCOC(=O)CSC1=C(C#N)C(c2ccccc2OCC)C(C#N)C(=O)N1 (configuration not stated) | inconclusive: -13.5% | 
CC(=O)Nc1ccc(S(=O)(=O)N2CCCC2C(=O)Nc2ccc3c(c2)OCCO3)cc1 (configuration not stated) | inconclusive: -16.3% | 
FC(F)Oc1ccc(NC(=S)NCc2nc3ccccc3[nH]2)cc1 | inactive: 5.29% | 
N#CC(C#N)=C1C=CC=CN1/C(=C\c1ccco1)C(=O)c1ccc(-c2ccccc2)cc1 |  | inconclusive: 16.4 µM [rising, single point]
COC(=O)CSc1nc(N)c(C#N)c(-c2ccco2)c1C#N | inconclusive: -9.18% | 
O=C(O)c1ccc(S(=O)(=O)/N=C2\C=C(Nc3ccccc3F)C(=O)c3ccccc32)cc1 |  | inconclusive: 3.55 µM [falling, single point]
Cc1ccc(-n2[nH]c(C)c(C=Nc3ccc4[nH]c(=O)[nH]c4c3)c2=O)cc1C | inactive: -1.69% | 
CCC(=O)N1c2ccccc2NC2=C(C(=O)CC(c3ccco3)C2)C1c1ccco1 (configuration not stated) | inactive: 5.4% | 
COc1cc(C)c(NC(=S)Nc2cccc(Cl)c2)cc1OC |  | inconclusive: 20.6 µM [rising, single point]
COc1cc(OC)cc(C(=O)NC2CCN(C(=O)N3c4ccccc4Sc4ccccc43)CC2)c1 | inconclusive: -1.16% | 
Cc1ccc(NC(=S)NCc2ccco2)c(C)c1 | inconclusive: 9.5% | 
O=C(NCCN1CCOCC1)c1ccncc1 | inconclusive: 7.14% | 
O=C(/C=C/c1ccco1)Nc1ccc(Cl)c(S(=O)(=O)N2CCOCC2)c1 |  | inconclusive: 22.4 µM [falling, single point]
CCOc1cc(/C=N\Nc2nc(-c3ccc(C)cc3)c(NC(C)=O)s2)ccc1O | inconclusive: -15% | 
CCOC(=O)c1nn(-c2ccc(Cl)cc2Cl)c(=N)c(C#N)c1C | inconclusive: -0.647% | 

Compound | activity change, negative = inhibition | Potency
Cc1ccc(C(=O)NCc2cccnc2)cc1S(=O)(=O)Nc1ccccc1 | inconclusive: 0.243% | 
CCC(C(=O)NC1CCCC1)N(Cc1ccc2c(c1)OCO2)C(=O)c1snc(C(N)=O)c1N (configuration not stated) | inconclusive: 2.25% | 
Cc1ccc(OCC(=O)O/N=C(\N)c2cccnc2)cc1 | inconclusive: -5.32% | 
COCCNC(=S)N/N=C(\C)c1ccccc1O | inconclusive: 6.82% | 
Cc1ccccc1CN(C)CC(=O)NC(C)CCc1ccccc1 (configuration not stated) | inactive: -10.1% | 
CS(=O)(=O)N1CCN(C(=O)Cc2ccc([N+](=O)[O-])cc2)CC1 | inactive: 7.33% | 
O=C(COc1ccc2c(c1)CCC2)N1CCc2ccccc21 | inconclusive: -11.3% | 
O=C(COC(=O)COc1ccccc1)NC1CCCC1 | inconclusive: 4.81% | 
O=C1CN(C(=O)c2ccc(Br)o2)C(c2ccccc2)c2cc(Br)ccc2N1 (configuration not stated) | inconclusive: -9.21% | 
Cc1ccc(NC(=O)CNC(C)c2ccccc2)cc1 (configuration not stated) | inconclusive: 9.22% | 
CCn1c(SCC(=O)Nc2cccc(NC(C)=O)c2)nnc1C(C)C | inconclusive: 0.724% | 
Cc1nn(C(=O)c2ccco2)c(C)c1Sc1ccc([N+](=O)[O-])cc1 | inconclusive: 1.21% | 
N#Cc1ccc(Oc2cnccn2)cc1 | inconclusive: -1.47% | 
Fc1cccc(COc2ccccc2C(=S)N2CCCC2)c1 | inconclusive: -0.971% | 
S=c1[nH]nc(-c2cc(-c3ccccc3)n[nH]2)n1/N=C/c1c2ccccc2cc2ccccc12 | inconclusive: 11.5% | 
COc1ccc(NC(=O)C2CCCN(C(=O)Nc3ccc(OC)cc3)C2)cc1 (configuration not stated) | inconclusive: 3.16% | 
CCc1ccccc1N1C[C@@]23C=C[C@@H](O2)C(C(=O)OCC(C)C)[C@H]3C1=O (some centres not stated) | inconclusive: -0.134% | 
COc1cc(NS(C)(=O)=O)ccc1Nc1c2ccccc2nc2ccccc12 |  | inconclusive: 8.2 µM [rising, partial curve]
CS(=O)(=O)Nc1ccc(C2=NN(C(=O)C3CCCCC3)C(c3cccs3)C2)cc1 (configuration not stated) | inconclusive: -7.2% | 
Cc1ccc(NC2=C(Cl)C(=O)OC2OC(=O)c2ccco2)cc1C (configuration not stated) | inconclusive: -9.82% | 
O=C(CS(=O)(=O)Cc1ccccc1)N1CCN(c2ccccc2F)CC1 | inactive: 6.27% | 
N#Cc1nc(-c2ccc(Cl)cc2)oc1NCC1CCCO1 (configuration not stated) | inconclusive: 12.2% | 
Cc1cc(SCC(=O)Nc2cccc(S(=O)(=O)NC3=NCCCCC3)c2)nc2ccccc12 |  | inconclusive: 11.2 µM [falling, partial curve]
CC(C)CCN(C(=O)C1CSC2(C)CCC(=O)N12)c1c(N)n(Cc2ccccc2)c(=O)[nH]c1=O (configuration not stated) | inactive: -7.96% | 
CCc1cccc2c(C(=O)COC(=O)[C@@H]3CC(O)CN3S(=O)(=O)c3ccccc3[N+](=O)[O-])c[nH]c12 (some centres not stated) | inactive: -1.96% | 
S=C(NCc1ccc(Cl)cc1)Nc1ccc(Cl)cc1Cl |  | inconclusive: 11.6 µM [rising, partial curve, poor fit]

Reformatted: results already given
Compound,"activity change, negative = inhibition",Potency
CCOC(=O)c1sc(NC(=O)c2sccc2C)cc1C,,"inconclusive: 2.91 µM [falling, partial curve, poor fit]"
COc1cc(NS(C)(=O)=O)ccc1Nc1c2ccccc2nc2ccccc12,,"inconclusive: 8.2 µM [rising, partial curve]"
